Results taken from patent publication US9605384B2, “Hydrophobic paper, cardboard, and packaging” (STL SUSTAINABLE TECHNOLOGIES, LLC, priority 2010, dated 2017).

Assay: Tensile strength of paper
Details: pulp in aqueous medium with 2 wt. % total alkoxysilane, versus paper free of alkoxysilane

SMILES	improvement in tensile strength [%]
CO[Si](C)(OC)OC [methyltrimethoxysilane]	16
CCCCCCCC[Si](OCC)(OCC)OCC [n-octyltriethoxysilane]	28
